# Some of the results follow. Cut-off read from the data, not from the text of the source: active = 2 or more and inactive = the rest. Repeats in this data set agree poorly, so a single value says little.
# System: Lgr5 (MarsCy1-Lgr5-EGFP, U2OS)
# Assay: cell-surface Lgr5 expression (SCi1 fluorescence, background-subtracted) relative to WT DMSO (fold of DMSO control); higher = more Lgr5 at the plasma membrane
# Settings: U2OS MarsCy1-Lgr5-EGFP stable; treatment time: overnight; library: ActiProbe-5K (TimTec); 25 µM
row,Structure (SMILES),cell-surface Lgr5 expression
1,CCCCNC(=S)N(C1CCCCC1)C1CCCCC1,inactive: 1.08
2,CCn1nnnc1SCSc1nnnn1CC,inactive: 0.964
3,Nc1nonc1-c1noc(CCCOc2ccc(Cl)cc2Cl)n1,inactive: 1.4
4,O=C1NC(=S)S/C1=C/c1ccc(-c2ccc3c(c2)COC3=O)o1,inactive: 1.04
5,CSc1nc2c(cc1C#N)CCC2,inactive: 1.28
6,CS(=O)(=O)c1nc(/N=N\c2ccc(O)cc2)n[nH]1,inactive: 1.34
7,Cc1cc(C)c(C)c(S(=O)(=O)n2ccnc2C(C)C)c1C,inactive: 1.13
8,O=C1CS/C(=N/c2ccccc2)N1c1ccccc1,inactive: 1.26
9,[C-]#[N+]c1ccc(Cl)cc1C(C)S(=O)(=O)c1ccc(C)cc1 (stereo not given),inactive: 0.895
10,[Br-].[Br-].c1cc[n+](CC[n+]2ccccc2)cc1,inactive: 1.19
11,COC(=O)n1nc(C)c(Br)c1C,inactive: 0.794
12,CC1(C)CC(=O)C(C(C2=C(O)CC(C)(C)CC2=O)c2cccs2)C(=O)C1 (stereo not given),inactive: 1.2
13,Sc1nnc(C2CCCCC2)n1/N=C\c1ccco1,inactive: 1.06
14,CC(C)(C)c1ccc(/C=N/n2c(S)nnc2-c2ccc(C(C)(C)C)cc2)cc1,inactive: 0.665
15,CCN1CCCC1Cn1c(C)c(C)c(C#N)c1N (stereo not given),inactive: 1.1
16,Cc1cc[nH]c1/C=C(/C#N)C(=S)S,inactive: 0.858
17,O=C1CC2CS(=O)(=O)CC2N1c1ccccc1 (stereo not given),inactive: 1.08
18,N#Cc1c(Nc2ccc([N+](=O)[O-])cc2[N+](=O)[O-])sc2c1CCC2,inactive: 1.31
19,CCc1ccc(-c2noc(N)c2C#N)s1,inactive: 1.49
20,COC(=O)CCc1n[nH]c(=O)[nH]c1=O,inactive: 1.32
21,Cc1ccc2c(c1)NC(C)(C)c1ss/c(=N/c3ccc(Cl)cc3Cl)c1-2,inactive: 0.948
22,N#CC1(C#N)[C@H](C(=O)c2ccc(F)cc2)C12CC[C@H]1CO[C@@H]2O1 (stereo not given in full),inactive: 1.18

row,Structure (SMILES),cell-surface Lgr5 expression
1,FC(c1nc2ccccc2[nH]1)C(F)(F)F (stereo not given),inactive: 0.932
2,Clc1cccc(-n2cnnn2)c1N1CCCC1,inactive: 1.71
3,Oc1cc(C23CC4CC(CC(C4)C2)C3)n[nH]1,inactive: 1.12
4,C=C(C)CC1Nc2ccccc2NC1CC(=C)C (stereo not given),inactive: 1.13
5,CCOC(=O)c1oc(C(=O)O)c2c1OCCO2,inactive: 1.14
6,C=CCNc1nc(-c2ccccc2)nc(-n2ccnc2)n1,inactive: 0.816
7,Cc1nc2sc3c(c2c(=O)n1N)CCC3,inactive: 1.33
8,Oc1c2nnnc-2cnn1-c1ccccc1,inactive: 1.15
9,c1cc(-c2cnn3nnnc3n2)cs1,inactive: 0.932
10,O=S(=O)(c1ccccc1)N1CCCc2ccccc21,inactive: 1.1
11,NC(=O)CSCCn1ccc2c1CCCC2,inactive: 1.13
12,NCCOC12CC3CC(CC(C3)C1)C2,inactive: 1.46
13,N#Cc1nc(N2CCCC2)nc(N(c2ccccc2)c2ccccc2)n1,inactive: 1.86
14,C/C(=N/Nc1nnc(C)c(=O)[nH]1)C(=O)O,inactive: 1.26
15,CC1=CC(C)(C)C(C#N)(C#N)C(N)=C1C#N,inactive: 1.57
16,C(=N/c1ccc2[nH]ncc2c1)/c1ccc2c(c1)OCO2,inactive: 0.331
17,Nc1nnc(SCC(=O)C2CC2)s1,inactive: 1.16
18,O=C1OC(c2ccccc2F)=N/C1=C\c1cccc(F)c1,inactive: 1.17
19,Nc1ccc2c(c1)OC1(CCCCC1)O2,inactive: 1.03
20,O=C1C2C3C=CC(C3)C2C(=O)N1Nc1ccc([N+](=O)[O-])cc1[N+](=O)[O-] (stereo not given),inactive: 1.26
21,C=CCNS(=O)(=O)c1ccc2[nH]c(=O)[nH]c2c1,inactive: 1.02
22,COC(=O)c1c(N)sc2c1CCCC2,inactive: 1.04

# Taken from above:
# For cell-surface Lgr5 expression, O=S(=O)(c1ccccc1)N1CCCc2ccccc21 is listed with inactive: 1.1
# For cell-surface Lgr5 expression, C=CCNc1nc(-c2ccccc2)nc(-n2ccnc2)n1 is listed with inactive: 0.816
# For cell-surface Lgr5 expression, Cc1nc2sc3c(c2c(=O)n1N)CCC3 is listed with inactive: 1.33
# For cell-surface Lgr5 expression, NCCOC12CC3CC(CC(C3)C1)C2 is listed with inactive: 1.46

# Next records

row,Structure (SMILES),cell-surface Lgr5 expression
1,Nc1nc(N(c2ccccc2)c2ccccc2)nc(C(F)(F)F)n1,inactive: 1.66
2,Nc1nonc1-c1noc(NCc2ccc3c(c2)OCO3)n1,inactive: 1.07
3,O=C(NC1CCCCC1)c1scc2c1CCCC2,inactive: 0.695
4,Nc1cc(N)nc(S)n1,inactive: 1.11
5,CN(C)C(=O)CSc1nnc(C23CC4CC(CC(C4)C2)C3)o1,inactive: 1.26
6,CC(C)(C)NC(=O)Nc1nncs1,inactive: 1.22
7,O=c1ccc(=O)n(-c2ccc3nnc(C(F)(F)F)n3n2)[nH]1,inactive: 0.919
8,CC(=O)N(C)C1CC(C)(C)NC(C)(C)C1,inactive: 1.06
9,Cc1nc(SCc2noc(CSc3nc(C)c(C)c(C)c3C#N)n2)c(C#N)c(C)c1C,inactive: 1.2
10,Cc1cc(S(=O)(=O)N2CCCCC2)c(C)s1,inactive: 1.26
11,O=C1Oc2ccccc2C(=O)/C1=C\c1c[nH]c2ccccc12,inactive: 0.338
12,Clc1ccc2c(c1)Nc1ccccc1S2,inactive: 1.29
13,O=[N+]([O-])c1ccc(Nc2ccc3c(c2)OCCO3)nc1,inactive: 0.964
14,COC(=O)Oc1c(Br)cc2oc(=O)sc2c1[N+](=O)[O-],inactive: 1.18
15,COc1cc2c(cc1OC)C1CCCCC1OC2c1cc(OC)c(OC)c(OC)c1 (stereo not given),inactive: 1.11
16,O=[N+]([O-])c1cc(Br)cc2c1[nH]c1ccc(Br)cc12,inactive: 1.37
17,COC(=O)c1c(NC(=O)C2C3C=CC(C3)C2C(=O)O)sc2c1CCC2 (stereo not given),inactive: 1.01
18,CC(=O)C1C(=O)C=C(c2ccco2)CC1c1ccco1 (stereo not given),inactive: 1.2
19,CC(=O)c1nc2c(C)c(C)sc2[nH]1,inactive: 1.16
20,Fc1ccc(CSc2ncnc3[nH]cnc23)c2ccccc12,inactive: 1.18
21,C1(/C2CC3CC(C2)CC1C3)=N\O,inactive: 1.24
22,CC1(C)CC2(CC(C)(C)N1CCO)OCCO2,inactive: 1.07

row,Structure (SMILES),cell-surface Lgr5 expression
1,N=C1SCC(=O)N1c1nccs1,inactive: 0.99
2,CN(C)CCN1CCNCC1,inactive: 0.782
3,Oc1c(Br)cc(Br)cc1/C=N\c1nccs1,inactive: 1.24
4,CN(CC12CC3CC(CC(C3)C1)C2)S(=O)(=O)c1ccc(Br)s1,inactive: 1.22
5,c1ccc2c3c([nH]c2c1)-c1nonc1CC3,inactive: 1.37
6,C=CCC1(NCc2ccco2)CCCCC1,inactive: 1.26
7,CNCc1cccs1.Cl,inactive: 1.37
8,O=C1NN(c2ccc([N+](=O)[O-])cc2)C(=O)C2C3C=CC(C3)C12 (stereo not given),inactive: 1.19
9,Oc1ccc(Oc2ncc(Cl)cc2Cl)cc1,inactive: 1.15
10,n1c(c(C)n[nH]c1=O)N\N=C1/CCC(CC1)C (stereo not given),inactive: 1.19
11,C(=C\c1nccc2c1[nH]c1ccccc12)/c1ccc2c(c1)OCO2,inactive: 1.35
12,O=C(NCCCn1ccnc1)c1nc(Cn2cc(Cl)cn2)no1,inactive: 1.4
13,O=C(O)CC1CCCCO1 (stereo not given),inactive: 0.971
14,O=c1c2c3c(sc2nc2n1CCCCC2)CCCC3,inactive: 1.27
15,Cc1nnc(SCC(=O)NC(=O)CSc2nnc(C)s2)s1,inactive: 1.08
16,O=C(O)[C@@H]1CSC2(CCCCC2)N1,inactive: 1.09
17,O=C1N(CN2CCC3(CC2)OCCO3)c2ccccc2C12OCCO2,inactive: 1.32
18,COCc1[nH]nc2c1C1(CCC(C(C)(C)C)CC1)C(C#N)=C(N)O2 (stereo not given),inactive: 0.973
19,I.Nc1nc2c(s1)CCCC2,inactive: 1.02
20,CN(C)c1nc(N)nc(CN(C)S(=O)(=O)c2ccccc2)n1,inactive: 0.999
21,CC1(C)CCC2(C)CCC(C)(C)NC2=N1 (stereo not given),inactive: 1.25
22,Clc1ncnc2c1ncn2C1CCCCO1 (stereo not given),inactive: 1.16

row,Structure (SMILES),cell-surface Lgr5 expression
1,C/C(=N\O)c1ccc(/C(C)=N/O)cc1,inactive: 1.2
2,Nc1ccc[n+](Cc2ccccn2)c1.[Br-],inactive: 1.59
3,NC(=O)C1(N2CCCCC2)CCN(C(=O)CN2CCNCC2)CC1,inactive: 1.14
4,OC(c1ccccc1)C(O)(c1ccccc1)c1ccccc1 (stereo not given),inactive: 1.53
5,CCOC(=O)c1sc(N)c(C(=O)OCC)c1C,inactive: 1.19
6,CCC(C)C(=O)N1CC(C)OC(C)C1 (stereo not given),inactive: 0.971
7,COc1cc(/C=N\O)c([N+](=O)[O-])cc1OC,inactive: 1.3
8,C1CCC(=N/n2cnnc2)/CC1,inactive: 1.23
9,Cc1cccn2c(=O)c(/C=C3/SC(=S)N(C)C3=O)c(N3CCCCC3)nc12,inactive: 0.912
10,O=Cc1ccc(Sc2ccccc2)c([N+](=O)[O-])c1,inactive: 1.48
11,O/N=C1/c2ccccc2-c2ncccc21,inactive: 0.468
12,C1(/C(CC(CC1=O)(C)C)=O)=C/NC(CO)(CO)CO,inactive: 1.14
13,Cn1c2c(c(=O)n(C)c1=O)C(O)(c1ccc(Br)cc1)N=C1SC=CN1C2 (stereo not given),inactive: 0.923
14,FC(F)(F)c1ccc2nnc(-c3c(Cl)cccc3Cl)n2c1,inactive: 0.963
15,N#Cc1c(C(F)(F)F)cc(-c2ccco2)[nH]c1=S,inactive: 1.02
16,Cc1ncc(C[n+]2csc(CCO)c2C)c(N)n1.Cl.[Cl-],inactive: 1.24
17,O=S(=O)(Nc1ccccn1)c1cc(Cl)ccc1Cl,inactive: 1.01
18,Oc1ccc(-c2cnc3ccncc3n2)cc1,inactive: 1.15
19,Cc1oc(CSCCSCc2cc(C(=O)O)c(C)o2)cc1C(=O)O,inactive: 1.46
20,Clc1ccc(CNCC2CCCO2)cc1 (stereo not given),inactive: 1.36
21,C[N+]1(CC[N+]2(C)CCCCC2)CCCCC1,inactive: 1.15
22,COCc1nnc(N)s1,inactive: 0.998

# Looked up by structure from above (2):
row,Structure (SMILES),cell-surface Lgr5 expression
8,C1CCC(=N/n2cnnc2)/CC1,inactive: 1.23
11,O/N=C1/c2ccccc2-c2ncccc21,inactive: 0.468

# Reference: the supplement of paper PMC4683952
